For 4 molecules, binding results are on record in PMC2907397.

No constants are given. Whether binding was seen depends on the method and setting. For some assays here: Binding seen in cells or lysates may run through a third protein. Some results given as binding are weak or reduced against the parent protein; the word gives no strength. For some assays here: Sequences can lack the tags named with a protein.

Experiment [1] concerns the target T1, myc-CIB1 (6xmyc-hCIB1) (human) (UniProt Q99828).
T1 sequence: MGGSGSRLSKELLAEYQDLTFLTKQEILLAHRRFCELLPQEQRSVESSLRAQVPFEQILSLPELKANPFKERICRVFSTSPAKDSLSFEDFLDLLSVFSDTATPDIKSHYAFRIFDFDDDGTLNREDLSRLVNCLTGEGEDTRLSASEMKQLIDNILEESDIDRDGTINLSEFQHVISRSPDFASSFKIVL
Nature of the experiment: co-IP; as the co-IP of transfected HEK-293T cells but without MG132; data not shown.

The target of experiment [2] is T1, myc-CIB1 (6xmyc-hCIB1) (human). Briefly: co-IP; HEK-293T co-transfected with pEGFP-N3-AID or pEGFP-N3 and p6xmyc-CIB1; 50 µM MG132 for 5 hours before harvest; lysis buffer 25 mM HEPES pH 7.4, 150 mM NaCl, 1% NP40; α-myc mAb and Protein G Sepharose at 4°C; blot with α-GFP polyclonal.
The target in experiment [3] is T2, human AID residues 56–198 (yeast two-hybrid bait) (human) (UniProt Q9GZX7).
T2 sequence: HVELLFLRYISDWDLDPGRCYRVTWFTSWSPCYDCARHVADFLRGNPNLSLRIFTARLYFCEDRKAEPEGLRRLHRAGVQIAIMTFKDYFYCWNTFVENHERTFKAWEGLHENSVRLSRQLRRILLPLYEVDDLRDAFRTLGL
Nature of the experiment: two-hybrid; large scale Gal4-based yeast two-hybrid screen; bait plasmid with human AID residues 56-198 against a tongue and tonsil cDNA library; hits identified by DNA sequencing.

Another experiment has as its target AID-EGFP (human) (UniProt Q9GZX7). Briefly: co-IP; reciprocal: HEK-293T co-transfected with pEGFP-N3-AID or pEGFP-N3 and 6xmyc-hCIB1; lysates incubated with 20 µg RNase A, DNase I or BSA at 37°C for 20 minutes; α-GFP mAb (JL8) and Protein G Sepharose at 4°C; blot with α-myc.
Another experiment concerns the target AID-STZ (human) (UniProt Q9GZX7). Nature of the experiment: pull-down; HEK-293T transfected with pAID-STZ or pEGFP-STZ, expressed for 48 hours; STZ proteins precipitated with IgG Sepharose, removed from the beads by TEV protease cleavage; blot with α-CIB1 and α-Strep.

As for AID-EGFP (from UniProt Q9GZX7 1-198), the binding entry in experiment [1] and in experiment [2] was “binds” each time.

B1: residues 1–191 of the calcium and integrin binding protein 1 (CIB1) (yeast two-hybrid prey) (protein, UniProt Q99828 1-191)
chain: T1 sequence
B1: the binding entry in experiment [3] is given as “binds”.

B2: myc-CIB1 (6xmyc-hCIB1) (protein, UniProt Q99828 1-191)
chain: T1 sequence
Regarding B2, the binding entry with AID-EGFP (human) was “binds”.

B3: endogenous CIB1 (protein, UniProt Q99828 1-191)
chain: T1 sequence
For B3, the binding result with AID-STZ (human) is on record as “binds”.
